The source of these data is PMC7819943, “Rice protein-binding microarrays: a tool to detect cis-acting elements near promoter regions in rice”.

The chains behind the UniProt entries cited, without tags or fusion partners.
UniProt Q0JBA9, entry or part of it: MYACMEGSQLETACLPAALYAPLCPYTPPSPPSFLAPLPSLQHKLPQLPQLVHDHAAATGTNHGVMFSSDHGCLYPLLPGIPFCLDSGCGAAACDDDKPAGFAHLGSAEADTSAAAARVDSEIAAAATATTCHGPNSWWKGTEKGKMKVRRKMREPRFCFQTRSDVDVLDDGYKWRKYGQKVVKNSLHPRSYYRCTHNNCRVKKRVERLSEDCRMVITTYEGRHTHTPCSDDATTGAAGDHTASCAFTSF

The other results are listed elsewhere or left out.

This assay addresses OsWRKY34 (Oryza sativa, UniProt Q0JBA9 1-250). Put plainly: protein-binding microarray (RPBM); PBS, 2% BSA, 51.3 ng/ul salmon testes DNA, 50 uM zinc acetate, 200 nM TF, 25 C, 1 h; high values mean tight binding. The following applies: protein: recombinant; tags: N-terminal polyhistidine and DsRed monomer fusion (pET32a); label: CyDye5-dUTP incorporated in the synthesized complementary strand; 3' TTTTT single-stranded linker to array surface; dsDNA, one strand shown. Put shortly: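 Binding signal is reported as fluorescence intensity per feature (arbitrary units) from an Axon 4000B scanner. Incubation used 200 nM of each Ni–NTA-purified, N-terminally polyhistidine- and DsRed-fused transcription factor from E. coli BL21-CodonPlus on a double-stranded custom Agilent array for 1 h at 25 °C, with 50 µM zinc acetate in the buffer, followed by washing.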
As to “CATATGACATTATTACTATGGTTCTTTGTTATAGTCCACTCGGAGTCACCTAGTGCAG”, the binding signal is 10400 fluorescence intensity (a.u.).

As for “CGTGCCCGACTCCACACACCACTCCACCGCATCGCACTCGCGGAGTCACCTAGTGCAG”, the binding signal was 8680 fluorescence intensity (a.u.).

Take “CACTGATTTTGATAGTTGAGGGACCCGTTGTATTTGATTTCGGAGTCACCTAGTGCAG”: the binding signal was 8120 fluorescence intensity (a.u.).

For the sequence “GTTATCTCTGGTAATTAGTTTCTTGTCTTCATCTACTCCTCGGAGTCACCTAGTGCAG”, the binding signal is 9590 fluorescence intensity (a.u.).

On to “TCATCGAGGACCGTCATTTGTTTCGTCAATCTTGGTATCCCGGAGTCACCTAGTGCAG”, for which the binding signal was 9860 fluorescence intensity (a.u.).

Consider “AGCAGCTGCCCCGAGTCGCCAGGTACATGAACATTTTACACGGAGTCACCTAGTGCAG”, for which the binding signal was 8090 fluorescence intensity (a.u.).

On to “TACCTTTTCCTGCAAATGTTACTTCTCCTTCATCCTTTGCCGGAGTCACCTAGTGCAG”, for which the binding signal was 10700 fluorescence intensity (a.u.).

On to “TACCGGCAGCTGCCTCTGACTCGTCTCCTCGTTGCTCCTCCGGAGTCACCTAGTGCAG”, for which the binding signal is 9240 fluorescence intensity (a.u.).

Take “CACTACTTATCCAATCACAACCCTACATCACTCACTTCTACGGAGTCACCTAGTGCAG”: the binding signal is 11600 fluorescence intensity (a.u.).

“CGCTTTTATCGCCGCCGCCGCCGCCGCCGCCTCCGCCGCCCGGAGTCACCTAGTGCAG”: the binding signal is 8800 fluorescence intensity (a.u.).

For “GCTTGGGGTGGAATCGCGTGGACAGCGTGGGCCTCAGTCACGGAGTCACCTAGTGCAG”, the binding signal is 12000 fluorescence intensity (a.u.).

Regarding “GCATTTCAAATTTCGAATTCCCAAACCTATCCATTCCAAACGGAGTCACCTAGTGCAG”, the binding signal is 9310 fluorescence intensity (a.u.).

As for “AAGATGATTCAGGCATTGATCTTCCCTACTCTACTATGTCCGGAGTCACCTAGTGCAG”, the binding signal is 8760 fluorescence intensity (a.u.).

Regarding “ACTTTCCGTTCAGAACCTGGCACCGTCTCTCTCTTCTTTCCGGAGTCACCTAGTGCAG”, the binding signal is 8570 fluorescence intensity (a.u.).

In the case of “AGCCAGGTCTCTTCGTTTTTCTTCGCGTTGATTTTTTTTTCGGAGTCACCTAGTGCAG”, the binding signal was 13800 fluorescence intensity (a.u.).

As to “CCGTTCATAACACCCATGGCTTTGGCACCACACGACACAACGGAGTCACCTAGTGCAG”, the binding signal was 8550 fluorescence intensity (a.u.).

Consider “GACGGCGACCGAAGGGGACAAGGAGGCGGGGCGGGGCGGCCGGAGTCACCTAGTGCAG”, for which the binding signal was 14000 fluorescence intensity (a.u.).

As for “CGATCTGCTTACACGGCATATTCTTACTGGATGGTGTACACGGAGTCACCTAGTGCAG”, the binding signal was 8720 fluorescence intensity (a.u.).

Regarding “ATTGGAGTTAGTGGTGGGCTATACTATTAGACGTCCATTGCGGAGTCACCTAGTGCAG”, the binding signal was 8520 fluorescence intensity (a.u.).

In the case of “CGAGGAACACACACACCCCTACCCGTCTCTGTTCATCTCCCGGAGTCACCTAGTGCAG”, the binding signal is 10900 fluorescence intensity (a.u.).

Turning to “CACCGAGAGCTCTCCCGCTCCACTCGCCGCACACCACCACCGGAGTCACCTAGTGCAG”, the binding signal is 10500 fluorescence intensity (a.u.).

For the sequence “TTCGTGTGGAGGCCCACGCTATCCTGCGATTCCACCATATCGGAGTCACCTAGTGCAG”, the binding signal is 8390 fluorescence intensity (a.u.).

Take “TTTTCTTAGCGGTTTTATTGTTTCTAACCAAGTTATAATTCGGAGTCACCTAGTGCAG”: the binding signal is 8180 fluorescence intensity (a.u.).

On to “AAAGTTCAAATAATATTTGCAACTTTTTTCATGATCGTTTCGGAGTCACCTAGTGCAG”, for which the binding signal is 8860 fluorescence intensity (a.u.).

On to “TTTTTTACCCTGTCAAAAACGTACATGATGCTTTTCACTGCGGAGTCACCTAGTGCAG”, for which the binding signal is 8170 fluorescence intensity (a.u.).

Turning to “AACATCATCTTTGCCTCTTTTGGACCATCATGACACTTATCGGAGTCACCTAGTGCAG”, the binding signal is 11800 fluorescence intensity (a.u.).

“ATATCATTCTCTCTCTCTCGTATCCCTTCTCTCTTTCCCCCGGAGTCACCTAGTGCAG”: the binding signal is 9350 fluorescence intensity (a.u.).

“AACACCGCCGTCTCCGTGGCCACCGCCGCCGCCGCCGCTCCGGAGTCACCTAGTGCAG”: the binding signal was 12400 fluorescence intensity (a.u.).

On to “TTTCATGTCAATAAAGCTAATGGCCTGTTCACTTTGATGCCGGAGTCACCTAGTGCAG”, for which the binding signal was 8440 fluorescence intensity (a.u.).

With “AAACCCTTTTTCCCAACCCATCTCCCTCATTTTTCGCGCGCGGAGTCACCTAGTGCAG”, the binding signal is 11300 fluorescence intensity (a.u.).

As to “AAATGTCAAGTTGCATCACATCGTCGTCATTGACACTATTCGGAGTCACCTAGTGCAG”, the binding signal is 8670 fluorescence intensity (a.u.).

“CACAATAGACCACCCGAAACCACATCTTCAACACTTCAATCGGAGTCACCTAGTGCAG”: the binding signal is 8530 fluorescence intensity (a.u.).

Regarding “TTTCTCACATGTTTGACCGTTTGTCTTATTTAAAAAATTTCGGAGTCACCTAGTGCAG”, the binding signal was 8770 fluorescence intensity (a.u.).

As for “AGTCTGGATTCTTGGAGGTCAACTTTGGTCAACGGTGGGGCGGAGTCACCTAGTGCAG”, the binding signal was 14200 fluorescence intensity (a.u.).

In the case of “TGAGCTTCACGTAGATCTCATCGTCGTTGTCCACCACGTCCGGAGTCACCTAGTGCAG”, the binding signal was 8650 fluorescence intensity (a.u.).

With “GGCCACCATGAGCTCTCCTTTCTTTGTTCTTCTCTTCTGACGGAGTCACCTAGTGCAG”, the binding signal is 10300 fluorescence intensity (a.u.).

As for “TTTGTTTCTTGTTCTAGAGGGTTTCCTAAGGTGTTTAGGACGGAGTCACCTAGTGCAG”, the binding signal is 9940 fluorescence intensity (a.u.).

As to “GACGTGGTGTTGGGCTAGTTATTTCTTCCAGGGGTACAATCGGAGTCACCTAGTGCAG”, the binding signal is 12600 fluorescence intensity (a.u.).

Regarding “GCTTCGGCTTCGGCGACCCTACCACCAACATCATCGCCAACGGAGTCACCTAGTGCAG”, the binding signal is 8690 fluorescence intensity (a.u.).

As for “CCGGGACTGCTTCGCCGCCTCCGTGATCACCCTGTTCGCCCGGAGTCACCTAGTGCAG”, the binding signal is 8070 fluorescence intensity (a.u.).

Regarding “GGATCGCGTGGTTTGTGTCGTGTCTTTGCATACGGCGACACGGAGTCACCTAGTGCAG”, the binding signal was 8300 fluorescence intensity (a.u.).

As for “GGTGTGAAGTGCGATTCTGTTAAGTAGTTTGTTACCCGGCCGGAGTCACCTAGTGCAG”, the binding signal was 8290 fluorescence intensity (a.u.).

Turning to “GTTTCACAATCCTCTGTTTTACAATTGTATTCCTGCCAGACGGAGTCACCTAGTGCAG”, the binding signal is 9040 fluorescence intensity (a.u.).

On to “CCCTTCTTTTTCTTCCTTTCTCAACCACACACAGCAGTACCGGAGTCACCTAGTGCAG”, for which the binding signal was 9370 fluorescence intensity (a.u.).

As to “CATCTCAAGTTAGCATGCGAGTTTTTTTTTAAAGTATTTCCGGAGTCACCTAGTGCAG”, the binding signal was 9710 fluorescence intensity (a.u.).

For “GTCACTACACGTTAAGTGTCACCTTCCACTCGGAACTACTCGGAGTCACCTAGTGCAG”, the binding signal was 8520 fluorescence intensity (a.u.).

“GGTTGCTTGGATACCAACATTTATCATACTTTTTTTGAATCGGAGTCACCTAGTGCAG”: the binding signal is 9280 fluorescence intensity (a.u.).

In the case of “GCCACTGGACGCCAACTTTGTCTCCAGCTATTTGACCAGGCGGAGTCACCTAGTGCAG”, the binding signal was 9000 fluorescence intensity (a.u.).

Take “GGCAATTCCTGTGTTTTTCCTGTGTTTTATAAAACTCTGACGGAGTCACCTAGTGCAG”: the binding signal is 8560 fluorescence intensity (a.u.).

As for “CTATGTGTACTAACATTTTTTTTACTTTTTCATAAATTTACGGAGTCACCTAGTGCAG”, the binding signal was 8370 fluorescence intensity (a.u.).

With “AGACTTTGGCTAACAGGCGTTTTCCTAATTACTGCTACAGCGGAGTCACCTAGTGCAG”, the binding signal was 8130 fluorescence intensity (a.u.).

Consider “GTTGTGAGGAAAGGCGTATTTTCGTGAATCCCGTGTTTATCGGAGTCACCTAGTGCAG”, for which the binding signal was 8250 fluorescence intensity (a.u.).

Consider “TTCTTGACGACGCAAACGTGCTTGAGCTTTCACCAACCCGCGGAGTCACCTAGTGCAG”, for which the binding signal was 8340 fluorescence intensity (a.u.).

On to “CCCATGTCTGCTTAACTTTTTATGCATAGTTTTCTTTGAACGGAGTCACCTAGTGCAG”, for which the binding signal is 10800 fluorescence intensity (a.u.).
